Data reported in patent US9856264B2, “Isoquinolinesulfonyl derivative as RHO kinase inhibitor” (MEDSHINE DISCOVERY INC., priority 2014, dated 2018).
At least one structure is not confirmed: it was looked up by name or label, or the drawing left a doubt. Some ranges recur; such a range may be that of the whole group of compounds. Some entries share one result that the patent states for a list of compounds.

The molecules below were run against ROCK kinase (assay: In vitro ROCK kinase inhibition activity evaluation (33P-ATP filter-binding)). Details: 1 nM ROCK kinase, 20 μM Long S6 Kinase substrate peptide, 2 h room temperature.
Assay type: biochemical
Description: Biological Activity Experiment: In Vitro ROCK Kinase Inhibition Activity Evaluation
Experimental Objective: Test ROCK Inhibition IC50 Value of Invented Compounds
Buffer solution: 20 mM Hepes (pH 7.5), 10 mM MgCl2, 1 mM EGTA, 0.02% Brij35, 0.02 mg/ml BSA, 0.1 mM Na3VO4, 2 mM DTT, 1% DMSO
To a freshly prepared buffer solution was added ROCK substrate Long S6 Kinase substrate peptide, with concentration at 20 μM. 1 nM ROCK kinase was then added, and well stirred. A series of DMSO solution (starting from 10 μM, dilution factor 3) of testing article was added using Echo550. The mixture was incubated for 20 min at room temperature, then was added ^33P-ATP (radioactive intensity 10 μCi/μL) to initiate reaction and further reacted for 2 h at room temperature. The mixture was filtered through P81 ion exchange paper (Whatman #3698-915), and washed by 0.75% phosphoric acid. The intensity of radiation was measured by Filter-Binding method.
The inhibition activity of the testing articles were measured by comparing the residue kinase activity to blank substrate (pure DMSO). Using Prism software ((GraphPad Software, San Diego Calif., USA) to calculate IC50 and curve.

Structure (SMILES)	IC50 [nM]
O=S(=O)(c1cccc2cnccc12)N1CC2CCCNCC2C1 (stereo not drawn) [12′, 2-(isoquinolin-5-ylsulfonyl)decahydropyrrolo[3,4-c]azepine]	100 to 1000
O=S(=O)(c1cccc2cnccc12)N1C[C@H]2CN[C@H]2C1 [Example 4, (3,6-diazabicyclo[3.2.0]heptan-3-ylsulfonyl)isoquinoline]	100 to 1000
O=S(=O)(c1cccc2cnccc12)N1CC2CCCCNC2C1 (stereo not drawn) [Example 12, 7-(isoquinolin-5-ylsulfonyl)decahydropyrrolo[3,4-b]azepine]	100 to 1000
